Data from US20250163119A1 (Eli Lilly and Company, priority 2023, published 2025).

Test: general procedure: Fmoc solid-phase peptide synthesis; Rink Amide MBHA LL; diisopropylcarbodiimide (DIC) / Oxyma
Settings: whole synthesis, analytical RP-HPLC (Waters Acuity CSH C18), scale 0.13 mmol, TFA salt

Substance: Ac-GSPSIVTS αMeL DVPT Aib αMeL LQKILEQERAEKARQQAKEAAEILAQV-NH2
- final HPLC purity: >92.0%
